## Screening data

Source: PubChem BioAssay AID1967 (NCATS, 2009).

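Mouse Schwann cell line MSC80 carrying a Pmp22 promoter green luciferase and a control-promoter red luciferase; the read-out is the green-to-red light ratio.
Percent change in the green/red ratio against untreated cells set at 0%; positive values mean a raised Pmp22 promoter signal, negative values a lowered one, and larger magnitude means stronger modulation.
Calls follow curve class, fit quality and response size; every row here is inconclusive, which carries a score of 1 to 39.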

Values are in %.
Common to all entries: at 115 µM (top of the series).
All entries here are filed as inconclusive.
These entries are mostly ones the record files as inconclusive; other results of the assay are not listed here.
Activity scores are not listed here.

| compound | setting | activity change (ratio) (%) | curve |
|---|---|---|---|
| `CC[N+](C)(C)Cc1ccccc1Br` | 0% = compound-free control cells | 31.89 | - |
| `CCCCC1C(=O)N(c2ccccc2)N(c2ccccc2)C1=O` | 0% = compound-free control cells | 36.57 | - |
| `Cn1cc(C2=C(c3ccc(Cl)cc3Cl)C(=O)NC2=O)c2ccccc21` | 0% = compound-free control cells | -3.247 | - |
| `Cc1nccc2c1[nH]c1ccccc12` | - | 48.26 | - |
| `CCc1c(C)[nH]c2c1C(=O)C(CN1CCOCC1)CC2` (stereo not given) | 0% = compound-free control cells | -25.85 | - |
| `Nc1ncnc2c1ncn2C1CCCO1` (stereo not given) | 0% = compound-free control cells | 39.17 | - |
| `O=C(Nc1cccc(C(=O)Nc2ccc(S(=O)(=O)O)c3cc(S(=O)(=O)O)cc(S(=O)(=O)O)c23)c1)Nc1cccc(C(=O)Nc2ccc(S(=O)(=O)O)c3cc(S(=O)(=O)O)cc(S(=O)(=O)O)c23)c1` | 0% = compound-free control cells | 46.18 | - |
| `CC1=C(/C=C/C(C)=C/C=C/C(C)=C/C(=O)O)C(C)(C)CCC1` | 0% = compound-free control cells | 9.824 | - |
| `COC(=O)N1CCN(C(=O)Cc2ccc(Cl)c(Cl)c2)C(CN2CCCC2)C1` (stereo not given) | - | -22.08 | - |
| `O=c1c(O)c(-c2ccc(O)cc2O)oc2cc(O)cc(O)c12` | 0% = compound-free control cells | 46.41 | - |
| `CC(=O)SC1CC2=CC(=O)CC[C@]2(C)C2CC[C@@]3(C)[C@@H](CC[C@@]34CCC(=O)O4)C12` (stereo not given in full) | 0% = compound-free control cells | 34.04 | - |
| `Cc1cc(O)c2c(c1)C(=O)c1cc(O)cc(O)c1C2=O` | 0% = compound-free control cells | -7.875 | - |
| `NC(=S)NCCCC(N)C(=O)O` (stereo not given) | 0% = compound-free control cells | -31.16 | - |
| `Clc1ccc(C(c2ccccc2Cl)C(Cl)Cl)cc1` (stereo not given) | 0% = compound-free control cells | -13.13 | - |
| `N[C@H](C(=O)O)[C@H](O)C(=O)O` | 0% = compound-free control cells | 16.08 | cytotoxic |
| `N[C@H]1CONC1=O` | 0% = compound-free control cells | 34.04 | - |
| `O=C(O)c1ccccc1Nc1ccccc1` | 0% = compound-free control cells | 11.27 | - |
| `O=c1onc2cnc3ccccc3n12` | 0% = compound-free control cells | 39.89 | - |
| `Nc1ncnc2c1ncn2C1CCCC1` | 0% = compound-free control cells | 41.66 | - |
| `COc1ccc2cc([C@H](C)C(=O)O)ccc2c1` | 0% = compound-free control cells | 38.54 | - |
| `NCC(O)c1cc(O)c(O)cc1F` (stereo not given) | - | -3.566 | - |
| `CCOC(=O)Nc1ccc(NCc2ccc(F)cc2)nc1N` | 0% = compound-free control cells | -11.31 | - |
| `Cc1ccc(O)c(N=Nc2ccccc2)n1` | 0% = compound-free control cells | 9.951 | - |
| `C[C@]12N[C@H](Cc3ccccc31)c1ccccc12` | - | -3.373 | - |

For reference, 2 entries once more:

Nc1ncnc2c1ncn2C1CCCC1 [0% = compound-free control cells] gave activity change (ratio) 41.66%.
O=c1onc2cnc3ccccc3n12 [0% = compound-free control cells] gave activity change (ratio) 39.89%.